Source: publication PMC3670919
No constants are given. Whether binding was seen depends on the method and setting. For part of these data: Binding seen in cells or lysates may run through a third protein. Some entries that bind do so weakly or less than the wild type. For part of these data: Where a sequence is shown, tags or fusion partners need not be part of it.

Protein sequences, listed by entry. Tags and fused reporters are not part of them. Lines headed by an entry give the natural chain unless they say otherwise; changes in a name come on top. Residues count along the entry.
UniProt Q9BQA1: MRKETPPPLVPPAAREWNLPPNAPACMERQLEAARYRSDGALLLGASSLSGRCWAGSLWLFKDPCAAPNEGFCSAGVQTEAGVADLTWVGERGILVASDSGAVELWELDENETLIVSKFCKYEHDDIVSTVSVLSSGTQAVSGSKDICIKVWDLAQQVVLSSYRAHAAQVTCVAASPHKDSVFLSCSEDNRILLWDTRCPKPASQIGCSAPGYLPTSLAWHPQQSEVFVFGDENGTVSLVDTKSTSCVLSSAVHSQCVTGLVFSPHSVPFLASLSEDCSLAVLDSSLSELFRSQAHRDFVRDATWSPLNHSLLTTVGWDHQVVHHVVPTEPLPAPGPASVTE
p44/WDR77 CytoTrap bait (pSos-p44): residues 2-342 of Q9BQA1

B1: 35S-labeled PKG-II kinase domain (amino acid residues 415-762) (domain or fragment, UniProt Q13237 415-762)
chain: RHAKRSMSNWKLSKALSLEMIQLKEKVARFSSSSPFQNLEIIATLGVGGFGRVELVKVKNENVAFAMKCIRKKHIVDTKQQEHVYSEKRILEELCSPFIVKLYRTFKDNKYVYMLLEACLGGELWSILRDRGSFDEPTSKFCVACVTEAFDYLHRLGIIYRDLKPENLILDAEGYLKLVDFGFAKKIGSGQKTWTFCGTPEYVAPEVILNKGHDFSVDFWSLGILVYELLTGNPPFSGVDQMMTYNLILKGIEKMDFPRKITRRPEDLIRRLCRQNPTERLGNLKNGINDIKKHRWLNGFNWEGLKARSLPSPLQRELKGPIDHSYFDKYPPEKGMPPDELSGWDKDF
modifications: 35S-labeled
B2: 35S-labeled full-length PKG-Iβ (FL; amino acid residues 1-686) (enzyme, UniProt Q13976-2 1-686)
chain: MGTLRDLQYALQEKIEELRQRDALIDELELELDQKDELIQKLQNELDKYRSVIRPATQQAQKQSASTLQGEPRTKRQAISAEPTAFDIQDLSHVTLPFYPKSPQSKDLIKEAILDNDFMKNLELSQIQEIVDCMYPVEYGKDSCIIKEGDVGSLVYVMEDGKVEVTKEGVKLCTMGPGKVFGELAILYNCTRTATVKTLVNVKLWAIDRQCFQTIMMRTGLIKHTEYMEFLKSVPTFQSLPEEILSKLADVLEETHYENGEYIIRQGARGDTFFIISKGTVNVTREDSPSEDPVFLRTLGKGDWFGEKALQGEDVRTANVIAAEAVTCLVIDRDSFKHLIGGLDDVSNKAYEDAEAKAKYEAEAAFFANLKLSDFNIIDTLGVGGFGRVELVQLKSEESKTFAMKILKKRHIVDTRQQEHIRSEKQIMQGAHSDFIVRLYRTFKDSKYLYMLMEACLGGELWTILRDRGSFEDSTTRFYTACVVEAFAYLHSKGIIYRDLKPENLILDHRGYAKLVDFGFAKKIGFGKKTWTFCGTPEYVAPEIILNKGHDISADYWSLGILMYELLTGSPPFSGPDPMKTYNIILRGIDMIEFPKKIAKNAANLIKKLCRDNPSERLGNLKNGVKDIQKHKWFEGFNWEGLRKGTLTPPIIPSVASPTDTSNFDSFPEDNDEPPPDDNSGWDIDF
modifications: 35S-labeled
B3: 35S-labeled PKG-Iβ ATP-binding domain (ATP; amino acid residues 355-491) (domain or fragment, UniProt Q13976-2 355-491)
chain: EAKAKYEAEAAFFANLKLSDFNIIDTLGVGGFGRVELVQLKSEESKTFAMKILKKRHIVDTRQQEHIRSEKQIMQGAHSDFIVRLYRTFKDSKYLYMLMEACLGGELWTILRDRGSFEDSTTRFYTACVVEAFAYLH
modifications: 35S-labeled
B4: 35S-labeled PKG-Iβ catalytic domain (CD; amino acid residues 491-686) (domain or fragment, UniProt Q13976-2 491-686)
chain: HSKGIIYRDLKPENLILDHRGYAKLVDFGFAKKIGFGKKTWTFCGTPEYVAPEIILNKGHDISADYWSLGILMYELLTGSPPFSGPDPMKTYNIILRGIDMIEFPKKIAKNAANLIKKLCRDNPSERLGNLKNGVKDIQKHKWFEGFNWEGLRKGTLTPPIIPSVASPTDTSNFDSFPEDNDEPPPDDNSGWDIDF
modifications: 35S-labeled
B5: 35S-labeled PKG-Iβ kinase domain (KD; amino acid residues 355-686) (domain or fragment, UniProt Q13976-2 355-686)
chain: EAKAKYEAEAAFFANLKLSDFNIIDTLGVGGFGRVELVQLKSEESKTFAMKILKKRHIVDTRQQEHIRSEKQIMQGAHSDFIVRLYRTFKDSKYLYMLMEACLGGELWTILRDRGSFEDSTTRFYTACVVEAFAYLHSKGIIYRDLKPENLILDHRGYAKLVDFGFAKKIGFGKKTWTFCGTPEYVAPEIILNKGHDISADYWSLGILMYELLTGSPPFSGPDPMKTYNIILRGIDMIEFPKKIAKNAANLIKKLCRDNPSERLGNLKNGVKDIQKHKWFEGFNWEGLRKGTLTPPIIPSVASPTDTSNFDSFPEDNDEPPPDDNSGWDIDF
modifications: 35S-labeled
B6: 35S-labeled PKG-Iβ N-terminal domain (NTD; amino acid residues 1-355) (domain or fragment, UniProt Q13976-2 1-355)
chain: MGTLRDLQYALQEKIEELRQRDALIDELELELDQKDELIQKLQNELDKYRSVIRPATQQAQKQSASTLQGEPRTKRQAISAEPTAFDIQDLSHVTLPFYPKSPQSKDLIKEAILDNDFMKNLELSQIQEIVDCMYPVEYGKDSCIIKEGDVGSLVYVMEDGKVEVTKEGVKLCTMGPGKVFGELAILYNCTRTATVKTLVNVKLWAIDRQCFQTIMMRTGLIKHTEYMEFLKSVPTFQSLPEEILSKLADVLEETHYENGEYIIRQGARGDTFFIISKGTVNVTREDSPSEDPVFLRTLGKGDWFGEKALQGEDVRTANVIAAEAVTCLVIDRDSFKHLIGGLDDVSNKAYEDAE
modifications: 35S-labeled
B7: FLAG-tagged PKG-Iβ (pcDNA-f:PKG-Iβ) (enzyme, UniProt Q13976-2 1-686)
chain: MGTLRDLQYALQEKIEELRQRDALIDELELELDQKDELIQKLQNELDKYRSVIRPATQQAQKQSASTLQGEPRTKRQAISAEPTAFDIQDLSHVTLPFYPKSPQSKDLIKEAILDNDFMKNLELSQIQEIVDCMYPVEYGKDSCIIKEGDVGSLVYVMEDGKVEVTKEGVKLCTMGPGKVFGELAILYNCTRTATVKTLVNVKLWAIDRQCFQTIMMRTGLIKHTEYMEFLKSVPTFQSLPEEILSKLADVLEETHYENGEYIIRQGARGDTFFIISKGTVNVTREDSPSEDPVFLRTLGKGDWFGEKALQGEDVRTANVIAAEAVTCLVIDRDSFKHLIGGLDDVSNKAYEDAEAKAKYEAEAAFFANLKLSDFNIIDTLGVGGFGRVELVQLKSEESKTFAMKILKKRHIVDTRQQEHIRSEKQIMQGAHSDFIVRLYRTFKDSKYLYMLMEACLGGELWTILRDRGSFEDSTTRFYTACVVEAFAYLHSKGIIYRDLKPENLILDHRGYAKLVDFGFAKKIGFGKKTWTFCGTPEYVAPEIILNKGHDISADYWSLGILMYELLTGSPPFSGPDPMKTYNIILRGIDMIEFPKKIAKNAANLIKKLCRDNPSERLGNLKNGVKDIQKHKWFEGFNWEGLRKGTLTPPIIPSVASPTDTSNFDSFPEDNDEPPPDDNSGWDIDF
B8: PKG-II two-hybrid clone 413-762 (domain or fragment, UniProt Q13237 413-762)
chain: EKRHAKRSMSNWKLSKALSLEMIQLKEKVARFSSSSPFQNLEIIATLGVGGFGRVELVKVKNENVAFAMKCIRKKHIVDTKQQEHVYSEKRILEELCSPFIVKLYRTFKDNKYVYMLLEACLGGELWSILRDRGSFDEPTSKFCVACVTEAFDYLHRLGIIYRDLKPENLILDAEGYLKLVDFGFAKKIGSGQKTWTFCGTPEYVAPEVILNKGHDFSVDFWSLGILVYELLTGNPPFSGVDQMMTYNLILKGIEKMDFPRKITRRPEDLIRRLCRQNPTERLGNLKNGINDIKKHRWLNGFNWEGLKARSLPSPLQRELKGPIDHSYFDKYPPEKGMPPDELSGWDKDF
B9: PKG-II two-hybrid clone 417-762 (domain or fragment, UniProt Q13237 417-762)
chain: AKRSMSNWKLSKALSLEMIQLKEKVARFSSSSPFQNLEIIATLGVGGFGRVELVKVKNENVAFAMKCIRKKHIVDTKQQEHVYSEKRILEELCSPFIVKLYRTFKDNKYVYMLLEACLGGELWSILRDRGSFDEPTSKFCVACVTEAFDYLHRLGIIYRDLKPENLILDAEGYLKLVDFGFAKKIGSGQKTWTFCGTPEYVAPEVILNKGHDFSVDFWSLGILVYELLTGNPPFSGVDQMMTYNLILKGIEKMDFPRKITRRPEDLIRRLCRQNPTERLGNLKNGINDIKKHRWLNGFNWEGLKARSLPSPLQRELKGPIDHSYFDKYPPEKGMPPDELSGWDKDF

These binders were tested against GST-p44 fusion protein (human) (UniProt Q9BQA1) (assay: pull-down; GST or GST-p44 (1 μg) immobilized on glutathione-agarose beads, incubated with 5 µl reticulocyte lysate with 35S-labeled protein; 20 mM HEPES pH 7.9, 0.2 mM EDTA, 20% glycerol, 2 mM DTT, 150 or 300 mM KCl, 0.1% NP-40; 2 h at 4 C; autoradiography; only the target purified).
B1 was tested, and the binding was “binds”. B2 was tested, and the binding was “binds weakly”. With B3 the binding was “binds”. For B4, the binding was “binds”. With B5 the binding was “binds”. With B6 the binding was “no binding”.

These binders were tested against p44/WDR77, endogenous in LNCaP cells (human (endogenous in LNCaP)) (UniProt Q9BQA1) (assay: co-IP; whole-cell extracts of LNCaP cells transfected with pcDNA-f:PKG-Iβ; anti-p44 antibody on Protein A Sepharose or anti-FLAG M2 agarose; washes with 100 mM KCl, 0.1% NP-40; Western blot with anti-PKG or anti-p44).
With B7 the binding was “binds weakly”.

What follows are binders tested against p44/WDR77 CytoTrap bait (pSos-p44) (human) (UniProt Q9BQA1) (assay: two-hybrid; CytoTrap (Sos recruitment) screen in S. cerevisiae cdc25H; bait pSos-p44, prey human prostate cDNA library fused to the v-Src myristylation sequence; growth on galactose at 37°C).
In the case of B8, the binding is reported as “binds”. With B9 the binding was “binds”.
